In publication PMC6168688:
These are yes or no findings as the source states them, for the method shown. Some binding calls cover weakened binding; strength is not graded here. For part of these data: Tags and fused reporters may be left off the sequences shown.

T1: REBELOTE (RBL), full length, bait in pAS2.1 (A. thaliana) (UniProt Q0WVH0)
T1 sequence: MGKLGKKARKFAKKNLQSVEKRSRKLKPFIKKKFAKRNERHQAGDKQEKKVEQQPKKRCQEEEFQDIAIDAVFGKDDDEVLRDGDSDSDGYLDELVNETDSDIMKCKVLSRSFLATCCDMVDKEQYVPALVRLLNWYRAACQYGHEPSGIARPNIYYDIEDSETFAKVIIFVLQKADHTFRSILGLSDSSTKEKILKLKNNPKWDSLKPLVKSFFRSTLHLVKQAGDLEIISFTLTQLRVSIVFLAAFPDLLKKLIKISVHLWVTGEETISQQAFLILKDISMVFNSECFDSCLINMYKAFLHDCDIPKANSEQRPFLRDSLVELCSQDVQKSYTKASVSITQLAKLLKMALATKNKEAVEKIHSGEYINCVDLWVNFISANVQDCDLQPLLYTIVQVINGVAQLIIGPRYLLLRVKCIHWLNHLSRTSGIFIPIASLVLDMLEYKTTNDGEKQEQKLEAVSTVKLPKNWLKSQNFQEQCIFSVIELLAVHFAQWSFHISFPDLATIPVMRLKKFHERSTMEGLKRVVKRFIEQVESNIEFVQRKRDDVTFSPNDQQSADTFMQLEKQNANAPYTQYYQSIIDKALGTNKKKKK

B1: HsCEBP/Z, GAL4 fusion protein (pGBKT7-GW / pACT2-GW) (protein, UniProt Q03701 1-1054)
chain: MAAVKEPLEFHAKRPWRPEEAVEDPDEEDEDNTSEAENGFSLEEVLRLGGTKQDYLMLATLDENEEVIDGGKKGAIDDLQQGELEAFIQNLNLAKYTKASLVEEDEPAEKENSSKKEVKIPKINNKNTAESQRTSVNKVKNKNRPEPHSDENGSTTPKVKKDKQNIFEFFERQTLLLRPGGKWYDLEYSNEYSLKPQPQDVVSKYKTLAQKLYQHEINLFKSKTNSQKGASSTWMKAIVSSGTLGDRMAAMILLIQDDAVHTLQFVETLVNLVKKKGSKQQCLMALDTFKELLITDLLPDNRKLRIFSQRPFDKLEQLSSGNKDSRDRRLILWYFEHQLKHLVAEFVQVLETLSHDTLVTTKTRALTVAHELLCNKPEEEKALLVQVVNKLGDPQNRIATKASHLLETLLCKHPNMKGVVSGEVERLLFRSNISSKAQYYAICFLNQMALSHEESELANKLITVYFCFFRTCVKKKDVESKMLSALLTGVNRAYPYSQTGDDKVREQIDTLFKVLHIVNFNTSVQALMLLFQVMNSQQTISDRYYTALYRKMLDPGLMTCSKQAMFLNLVYKSLKADIVLRRVKAFVKRLLQVTCQQMPPFICGALYLVSEILKAKPGLRSQLDDHPESDDEENFIDANDDEDMEKFTDADKETEIVKKLETEETVPETDVETKKPEVASWVHFDNLKGGKQLNKYDPFSRNPLFCGAENTSLWELKKLSVHFHPSVALFAKTILQGNYIQYSGDPLQDFTLMRFLDRFVYRNPKPHKGKENTDSVVMQPKRKHFIKDIRHLPVNSKEFLAKEESQIPVDEVFFHRYYKKVAVKEKQKRDADEESIEDVDDEEFEELIDTFEDDNCFSSGKDDMDFAGNVKKRTKGAKDNTLDEDSEGSDDELGNLDDDEVSLGSMDDEEFAEVDEDGGTFMDVLDDESESVPELEVHSKVSTKKSKRKGTDDFDFAGSFQGPRKKKRNLNDSSLFVSAEEFGHLLDENMGSKFDNIGMNAMANKDNASLKQLRWEAERDDWLHNRDAKSIIKKKKHFKKKRIKTTQKTKKQRK
B2: OBERON1 (OBE1), full-length cDNA in pADGAL4-2.1 (protein, UniProt Q9S736 1-566)
chain: MGTSSGSNLPHQMLPPRQQLQTSLSLVSSDPHLSRSNSGIVRESPAESASSQETWPTSKSIMGRKTDSGKTGPDSHDQHVIRHVSIADKVSLRDIARERLDIVAERMHRLPEEYLEELKNGLKAILEGNGAQPIDEFMFLQKFVQTRSDLTSKTLVRAHRVQLEVLVVINTGIQAFLHPNINLSQSSLIEIFVYKRCRNIACQNELPADGCPCEICANRKGFCNLCMCVICNKFDFAVNTCRWIGCDVCSHWTHTDCAIRDGEISMGVSPKSVSGMGEMLFKCRACNHTSELLGWVKDVFQHCAPNWDRESLMKELDFVSRIFRGSEDTRGRKLFWKCEELMEKIKGGLAEATAAKLILMFFQEIELDSPKSLESGEGGGTIAPQDACNRIAEVVKETLRKMEIVGEEKTRMYKKARMGLEECEREVEEKAKQVAELQMERQKKKQQIEEVERIVRLKQAEAEMFQLKANEAKVEAERLERIVKAKKEKTEEEYASNYLKLRLSEAEAEKEYLFEKIKEQESGGNGGEASQAVMYSKIREMLHGYNASSPRVDPRSNQRNPFRSNP
B3: VFP3/ENAP1 (VirF-interacting Protein 3/EIN2 nuclear associated protein 1), full-length cDNA in pADGAL4-2.1 (protein, UniProt Q8VZI9 1-249)
chain: METTPETQSKTHRLPAGREDWWSEDATATLIEAWGDRYVNLNRGNLRQNDWKEVADAVNSSHGNGRPKTDVQCKNRIDTLKKKYKTEKAKPLSNWCFFDRLDFLIGPVMKKSSGAVVKSALMNPNLNPTGSKSTGSSLDDDDDDDDDDEEDDDDAGDWGFVVRKHRKVEDVDSSEGSAFRELARSILKLGEAFERIEGKKQQMMIELEKQRMEVAKELELQRMNMLMEMQLELEKSKLGKRRAASGKKL

Legend:
[1] = biological target: HsCEBP/Z, GAL4 fusion protein (pGBKT7-GW / pACT2-GW) (human) (UniProt Q03701); assay: two-hybrid; mammalian NOC proteins, GAL4 fusions in pGBKT7-GW and pACT2-GW, interaction matrix on SD-HTL selective medium (10^-3 dilution)
[2] = biological target: T1, REBELOTE (RBL), full length, bait in pAS2.1 (A. thaliana); assay: two-hybrid; direct test by mating: AH109 with pADGAL4-2.1 full-length cDNAs of interactors, Y187 with pAS2.1-RBL; SD-AHTL selective media

Binder	binding [1]	binding [2]
B1	binds	
B2		binds
B3		binds
